This is an account of results in publication PMC4466507 (PLoS ONE, 2015).

This series in a line: peptide made by a vendor. Conditions: whole synthesis, LC-MS.

As for CPQ2-IVYELQGP-K(5FAM)-KK-NH2, the “purity (crude or final not stated)” value amounted to 96.7%.

As for CPQ2-GGSGGS-K(5FAM)-KK-NH2, the “purity (crude or final not stated)” value came to 95.1%.
